{
  "sequences": {"note": "By UniProt entry, the sequences of proteins in these tests, tags left out. Residues count along the entry.", "UniProt P08670, residues 99-249": "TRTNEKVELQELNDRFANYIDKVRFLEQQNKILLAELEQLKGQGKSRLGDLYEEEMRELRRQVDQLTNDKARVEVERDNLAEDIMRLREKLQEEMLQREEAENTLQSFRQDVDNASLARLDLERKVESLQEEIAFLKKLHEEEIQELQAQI"},
  "source": "paper PMC4782060",
  "biological_target": "vimentin^ROD construct, vimentin residues 99-249 (coils 1A and 1B of the central rod domain) (human) (UniProt P08670)",
  "test": "AUC; vimentin^ROD alone, in the presence of 150 mM NaCl; both purified",
  "note": "No constants are given. Whether binding was seen depends on the method and setting.",
  "data": [
    {"substance": "vimentin^ROD construct, vimentin residues 99-249 (coils 1A and 1B of the central rod domain) (from UniProt P08670 99-249) (domain or fragment)", "values": [
      {"measurement": "binding", "value": "no binding"}
    ]}
  ]
}
